Non-standard residues stand in square brackets, D forms with d. *: point of attachment. Palmitoyl = CCCCCCCCCCCCCCCC(=O)*; Dap = NC[C@H](N)C(=O)O; Ahx = NCCCCCC(=O)O

Data set [1] in a line: general procedure: Fmoc solid-phase peptide synthesis; Rink amide resin; HBTU (HATU for Hds and PEG2000). As to conditions: whole synthesis.
The nature of data set [2]: general procedure: Fmoc solid-phase peptide synthesis; Rink amide AM resin; HBTU (HATU for Hds and PEG2000). To be noted: whole synthesis, scale 0.25 mmol.
The nature of data set [3]: general procedure: Fmoc solid-phase peptide synthesis; Fmoc-amino acid-Wang resin or Rink amide resin; HBTU (HATU for Hds and PEG2000). To be noted: whole synthesis, scale 0.25 mmol.
Data set [4] in a line: general procedure: Fmoc solid-phase peptide synthesis; Fmoc-Glu(OtBu)-Wang resin; HBTU (HATU for Hds and PEG2000). To be noted: whole synthesis.
Data set [5] can be described thus: general procedure: Fmoc solid-phase peptide synthesis; Fmoc-Lys(Boc)-Wang resin; HBTU (HATU for Hds and PEG2000). As to conditions: whole synthesis, scale 0.25 mmol.
Data set [6] is described as follows: general procedure: Fmoc solid-phase peptide synthesis; Fmoc-Cys(Trt)-Wang resin; HBTU (HATU for Hds and PEG2000). To be noted: whole synthesis, scale 0.25 mmol.

“N-α-Palmitoyl-N-ε-palmitoyl-lysinyl-lysinyl-lysinyl-lysinyl-lysinyl-tyrosinyl-tyrosine Amide” came in with a crude mass in data set [1] (scale 0.2 mmol) of 300 mg.

In data set [2], “Palmitoyl-Dpr(Palmitoyl)-Arg-Arg-Lys(PEG2000)—NH2” displayed a crude mass of 27 mg.

For Palmitoyl-K(Palmitoyl)KK[Ahx]KRKRKR-NH2, in data set [1] (scale 0.25 mmol), the crude mass was 150 mg.

For the substance Palmitoyl-[Dap](Palmitoyl)RRK-NH2, in data set [3], the isolated mass amounted to 5 mg. Besides, in data set [1] (scale 0.25 mmol), the crude mass was 50 mg.

As to Palmitoyl-AKAKAEAEAKAKAEAE-OH, the crude mass in data set [4] (scale 0.25 mmol) worked out at 300 mg.

Consider “N-α-Palmitoyl-N-ε-palmitoyl-lysinyl-lysinyl-lysinyl-lysinyl-lysine”, for which the crude mass in data set [5] is 200 mg.

In turn, “N-β-PEG2000-Dpr-Lys(Hds)-Lys-Lys(Hds)-Glu-OH” returned a crude mass in data set [4] (scale 0.2 mmol) of 500 mg.

For the substance “N-α-Palmitoyl-N-ε-palmitoyl-lysinyl-glutamyl-glutamyl-glutamyl-glutamic Acid”, the isolated mass in data set [3] came to 30 mg. The substance also gave a crude mass in data set [4] (scale 0.25 mmol) of 200 mg.

With Palmitoyl-K(Palmitoyl)KK[Ahx]C-OH, in data set [6], the crude mass worked out at 250 mg.

“Behenic Acid (Beh)-Beh-Asp-Ala-Asp-Ala-Dpr-Ala-Dpr-NH”: the isolated mass in data set [3] turned out to be 6 mg. In data set [1] (scale 0.25 mmol), this substance gave a crude mass of 150 mg.

In data set [5], Palmitoyl-AEAEAKAKAEAEAKAK-OH gave a crude mass of 300 mg.

Values taken from patent publication US6548048 (dated 2003).
